Laboratory results from article PMC9929932.

By UniProt entry, the sequences of proteins in these tests, tags left out. Where a name states a change or a piece, a line headed by the entry shows the natural chain unless it says otherwise.
UniProt P49023: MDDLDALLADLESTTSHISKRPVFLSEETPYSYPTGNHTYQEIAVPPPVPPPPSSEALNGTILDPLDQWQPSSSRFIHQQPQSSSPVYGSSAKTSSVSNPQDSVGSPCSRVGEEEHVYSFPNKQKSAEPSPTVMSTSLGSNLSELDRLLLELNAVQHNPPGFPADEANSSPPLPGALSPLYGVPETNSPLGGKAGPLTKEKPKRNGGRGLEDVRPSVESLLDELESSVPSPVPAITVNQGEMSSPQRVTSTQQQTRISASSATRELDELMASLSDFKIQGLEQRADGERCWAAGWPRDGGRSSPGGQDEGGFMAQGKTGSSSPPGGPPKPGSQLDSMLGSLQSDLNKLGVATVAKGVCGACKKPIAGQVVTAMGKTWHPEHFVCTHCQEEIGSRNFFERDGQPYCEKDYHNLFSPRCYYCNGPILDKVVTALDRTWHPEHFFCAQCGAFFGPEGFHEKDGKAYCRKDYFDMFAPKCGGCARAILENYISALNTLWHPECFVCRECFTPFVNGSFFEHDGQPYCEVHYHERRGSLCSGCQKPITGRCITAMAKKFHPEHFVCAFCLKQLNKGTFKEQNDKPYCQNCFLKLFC
UniProt Q64727: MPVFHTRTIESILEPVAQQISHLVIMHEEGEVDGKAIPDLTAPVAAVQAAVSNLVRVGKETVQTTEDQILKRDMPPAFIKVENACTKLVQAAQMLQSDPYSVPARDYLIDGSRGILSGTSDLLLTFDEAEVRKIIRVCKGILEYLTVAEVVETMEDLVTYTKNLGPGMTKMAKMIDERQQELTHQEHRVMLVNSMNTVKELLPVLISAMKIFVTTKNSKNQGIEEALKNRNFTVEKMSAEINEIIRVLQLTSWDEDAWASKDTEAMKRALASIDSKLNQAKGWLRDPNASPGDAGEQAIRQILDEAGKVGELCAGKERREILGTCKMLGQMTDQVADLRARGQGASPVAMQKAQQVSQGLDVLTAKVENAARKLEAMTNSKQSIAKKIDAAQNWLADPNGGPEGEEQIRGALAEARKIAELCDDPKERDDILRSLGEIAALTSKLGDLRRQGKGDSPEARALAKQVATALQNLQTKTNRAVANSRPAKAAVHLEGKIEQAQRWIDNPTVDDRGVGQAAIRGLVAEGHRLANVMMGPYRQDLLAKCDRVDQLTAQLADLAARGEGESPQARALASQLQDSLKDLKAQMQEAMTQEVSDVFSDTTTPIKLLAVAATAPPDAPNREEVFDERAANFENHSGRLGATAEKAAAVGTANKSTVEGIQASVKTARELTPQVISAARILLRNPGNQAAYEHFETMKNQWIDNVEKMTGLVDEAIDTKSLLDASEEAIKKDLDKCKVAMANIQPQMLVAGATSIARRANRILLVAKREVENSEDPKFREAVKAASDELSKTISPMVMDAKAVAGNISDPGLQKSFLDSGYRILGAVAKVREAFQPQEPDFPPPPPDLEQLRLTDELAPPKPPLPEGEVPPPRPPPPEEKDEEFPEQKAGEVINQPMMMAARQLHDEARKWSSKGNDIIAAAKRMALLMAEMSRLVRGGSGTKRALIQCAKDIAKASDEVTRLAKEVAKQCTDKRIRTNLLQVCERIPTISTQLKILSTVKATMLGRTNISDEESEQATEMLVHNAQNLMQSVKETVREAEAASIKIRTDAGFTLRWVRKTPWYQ

Key:
[1] = biological target: non-phosphorylatable human Y118F-Paxillin (Y118F-Paxillin-T2A-GFP) (human) (UniProt P49023); assay: co-IP; in vitro: RIPA lysate of YUMM1.7 cells in culture; 1,000 µg total protein with 5 µg rabbit anti-Paxillin overnight at 4°C, Dynabeads Protein G 2 h at 4°C, three washes with RIPA lysis buffer; Western blot
[2] = biological target: wildtype human Paxillin (WT-Paxillin-T2A-GFP) (human) (UniProt P49023); assay: as above
[3] = biological target: phosphomimetic human Y118E-Paxillin (Y118E-Paxillin-T2A-GFP) (human) (UniProt P49023); assay: as above
[4] = biological target: non-phosphorylatable human Y118F-Paxillin (Y118F-Paxillin-T2A-GFP) (human) (UniProt P49023); assay: co-IP; in vivo: RIPA lysate of YUMM1.7 melanoma tumors grown in C57BL/6J mice; 1,000 µg total protein with 5 µg rabbit anti-Paxillin overnight at 4°C, Dynabeads Protein G 2 h at 4°C, three washes with RIPA lysis buffer; Western blot
[5] = biological target: wildtype human Paxillin (WT-Paxillin-T2A-GFP) (human) (UniProt P49023); assay: as above
[6] = biological target: phosphomimetic human Y118E-Paxillin (Y118E-Paxillin-T2A-GFP) (human) (UniProt P49023); assay: as above

Measured: binding

CRKII (from UniProt Q64010-1 1-304)
binds: [1] | [2] | [3] | [4] | [5]

DOCK180/RacGEF (from UniProt Q8BUR4 1-1865)
binds: [4] | [5]

Vinculin (from UniProt Q64727 1-1066)
binds: [4] | [6]

These are yes or no findings as the source states them, for the method shown. In cells and extracts the contact can be indirect. Binding can be weak; no strength is given.
